Experimental data from article PMC11374810.
Results are given in words; binding and its absence hold for the method and conditions named. In cells and extracts the contact can be indirect. Some binding calls cover weakened binding; strength is not graded here. For some assays here: Tags and fused reporters may be left off the sequences shown.

Amino acid sequences for entries named in this document (tags omitted).
UniProt Q8K3C0: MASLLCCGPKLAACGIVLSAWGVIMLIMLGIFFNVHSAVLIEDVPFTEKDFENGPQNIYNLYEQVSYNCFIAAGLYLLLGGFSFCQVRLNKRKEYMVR

T1: GFP-VPS4a (UniProt Q9UN37)
T1 sequence: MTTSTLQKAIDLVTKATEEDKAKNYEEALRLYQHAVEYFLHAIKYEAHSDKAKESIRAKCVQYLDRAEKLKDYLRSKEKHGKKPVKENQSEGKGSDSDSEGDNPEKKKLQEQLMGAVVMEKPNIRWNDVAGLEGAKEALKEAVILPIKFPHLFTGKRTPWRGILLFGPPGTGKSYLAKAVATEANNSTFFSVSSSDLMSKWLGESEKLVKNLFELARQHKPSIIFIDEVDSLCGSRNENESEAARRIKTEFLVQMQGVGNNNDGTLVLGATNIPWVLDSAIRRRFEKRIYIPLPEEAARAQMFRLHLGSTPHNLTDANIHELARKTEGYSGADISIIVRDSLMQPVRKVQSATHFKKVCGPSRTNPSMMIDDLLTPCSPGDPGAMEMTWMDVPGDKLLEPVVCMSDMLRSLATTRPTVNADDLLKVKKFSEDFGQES


How the values were obtained:
GFP-VPS4a = biological target: T1, GFP-VPS4a; test: pull-down; cleared HEK293T lysates expressing individual transgenes mixed, incubated with GFP-Trap agarose beads overnight at 4 °C in PD buffer (150 mM NaCl, 20 mM Tris-HCl pH 7.5, 5 mM EDTA, 1% Triton-X); three washes; western blot; GFP alone as control
GFP-RNAseK (mouse) = GFP-RNAseK (mouse) (UniProt Q8K3C0); test: as above

| binding (GFP-VPS4a) | binding (GFP-RNAseK (mouse)) | Molecule |
| --- | --- | --- |
| binds | – | RNAseK-MYC-TurboID (from UniProt Q8K3C0 1-98) |
| – | binds | mCherry-VPS4a (protein, UniProt Q9UN37 1-437) MTTSTLQKAIDLVTKATEEDKAKNYEEALRLYQHAVEYFLHAIKYEAHSDKAKESIRAKCVQYLDRAEKLKDYLRSKEKHGKKPVKENQSEGKGSDSDSEGDNPEKKKLQEQLMGAVVMEKPNIRWNDVAGLEGAKEALKEAVILPIKFPHLFTGKRTPWRGILLFGPPGTGKSYLAKAVATEANNSTFFSVSSSDLMSKWLGESEKLVKNLFELARQHKPSIIFIDEVDSLCGSRNENESEAARRIKTEFLVQMQGVGNNNDGTLVLGATNIPWVLDSAIRRRFEKRIYIPLPEEAARAQMFRLHLGSTPHNLTDANIHELARKTEGYSGADISIIVRDSLMQPVRKVQSATHFKKVCGPSRTNPSMMIDDLLTPCSPGDPGAMEMTWMDVPGDKLLEPVVCMSDMLRSLATTRPTVNADDLLKVKKFSEDFGQES |
